Measured values: paper PMC7793252

Target: TgPPM3C-HA (Toxoplasma gondii (endogenous locus in Prugniaud Δku80Δhxgprt parasites))
Assay: affinity purification with mass spectrometry; anti-HA magnetic beads incubated overnight at 4°C with cleared lysate of HFF monolayers infected 24 h with TgPPM3C-HA tachyzoites (control: untagged PruQ); lysis buffer 50 mM Tris pH 7.4, 200 mM NaCl, 1% Triton X-100, 0.5% CHAPS with protease and phosphatase inhibitors; washes up to 300 mM NaCl, 0.1% Triton X-100; eluates analysed by LC-MS/MS; two independent experiments

B1: GRA7 (protein, UniProt O00933 27-236)
chain: ATASDDELMSRIRNSDFFDGQAPVDSLRPTNAGVDSKGTDDHLTTSMDKASVESQLPRREPLETEPDEQEEVHFRKRGVRSDAEVTDDNIYEEHTDRKVVPRKSEGKRSFKDLLKKLALPAVGMGASYFAADRLVPELTEEQQRGDEPLTTGQNVGTVLGFAALAAAAAFLGMGLTRTYRHFSPRKNRSRQPALEQEVPESGEDGEDARQ
binding: binds

No constants are given. Whether binding was seen depends on the method and setting. In cells and extracts the contact can be indirect. These calls come from enrichment with a bait or labelling near it, and not all partners need be listed.
